Data as given in US10004786B2 (Zealand Pharma A/S, priority 2009, dated 2018).

Assay: general procedure: Fmoc solid-phase peptide synthesis; TentaGel S Ram resin (1 g; 0.25 mmol/g)
Conditions: whole synthesis, analytical HPLC

Q: For “H-H-Aib-QGTFTSDYSKYLDS-K(Hexadecanoyl-γ-Glu)-AARDFVAWLLRA-NH2”, which “final HPLC purity” value is on record?
A: Its value is 97%.
